The results in this text go back to paper PMC6238530.

Sequences of proteins named here, by UniProt entry; tags and fusion partners are left off.
UniProt P03372: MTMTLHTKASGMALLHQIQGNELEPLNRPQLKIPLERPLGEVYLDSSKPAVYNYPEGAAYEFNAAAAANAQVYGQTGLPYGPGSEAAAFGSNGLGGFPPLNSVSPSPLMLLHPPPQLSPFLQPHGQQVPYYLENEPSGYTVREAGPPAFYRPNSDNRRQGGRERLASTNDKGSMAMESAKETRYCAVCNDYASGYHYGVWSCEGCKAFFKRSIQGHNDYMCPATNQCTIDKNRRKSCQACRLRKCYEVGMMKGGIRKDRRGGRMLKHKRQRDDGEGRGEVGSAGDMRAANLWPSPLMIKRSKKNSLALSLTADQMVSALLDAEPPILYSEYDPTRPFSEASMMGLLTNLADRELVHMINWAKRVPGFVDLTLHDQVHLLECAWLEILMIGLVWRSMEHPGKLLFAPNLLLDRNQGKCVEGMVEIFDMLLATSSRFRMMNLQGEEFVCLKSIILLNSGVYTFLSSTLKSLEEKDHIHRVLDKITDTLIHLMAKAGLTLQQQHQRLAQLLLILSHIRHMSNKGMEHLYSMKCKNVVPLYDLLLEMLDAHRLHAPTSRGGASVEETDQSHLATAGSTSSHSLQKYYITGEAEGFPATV

This assay addresses T1, CARM1 (human (endogenous in MDA-MB-134)) (UniProt Q86X55).
T1 sequence: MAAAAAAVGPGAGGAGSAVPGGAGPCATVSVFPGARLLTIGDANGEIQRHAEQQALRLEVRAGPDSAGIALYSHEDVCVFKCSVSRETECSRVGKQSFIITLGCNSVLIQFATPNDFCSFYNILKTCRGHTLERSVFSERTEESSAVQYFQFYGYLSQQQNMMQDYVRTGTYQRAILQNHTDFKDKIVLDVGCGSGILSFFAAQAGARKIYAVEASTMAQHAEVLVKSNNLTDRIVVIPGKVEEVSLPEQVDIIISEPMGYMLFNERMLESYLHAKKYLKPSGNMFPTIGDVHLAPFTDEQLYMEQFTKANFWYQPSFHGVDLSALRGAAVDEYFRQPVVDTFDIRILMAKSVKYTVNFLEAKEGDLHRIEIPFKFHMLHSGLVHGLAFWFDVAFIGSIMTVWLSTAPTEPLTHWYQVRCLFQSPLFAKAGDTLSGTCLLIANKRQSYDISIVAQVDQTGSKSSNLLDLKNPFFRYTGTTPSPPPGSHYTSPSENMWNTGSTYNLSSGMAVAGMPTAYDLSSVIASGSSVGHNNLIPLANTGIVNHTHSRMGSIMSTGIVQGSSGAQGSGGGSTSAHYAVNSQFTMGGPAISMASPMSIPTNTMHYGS
As to the kind of experiment: co-IP; endogenous proteins; MDA-MB-134 cells treated with DMSO, 100 nM E2 or FI (10 uM forskolin, 100 uM IBMX) for 1 h; 2 mg lysate (10 mM Tris-HCl pH 7.5, 50 mM NaCl, 1 mM EDTA, 1 mM DTT, 10% glycerol, 10 mM Na-molybdate) on protein G-dynabeads pre-coated with antibody against ERα or CARM1 or control IgG, overnight at 4°C; immunoblot.

No constants are given. Whether binding was seen depends on the method and setting. Binding seen in cells or lysates may run through a third protein. Some entries that bind do so weakly or less than the wild type.

As to “estrogen receptor α (ERα) (from UniProt P03372 1-595)”, the binding result was “binds”.
